In patent US20260158076A1:
No constants are given. Whether binding was seen depends on the method and setting. Some results given as binding are weak or reduced against the parent protein; the word gives no strength.

Chains of the proteins cited; added tags and fusions are not shown. Residues count along the entry.
UniProt P68082, residues 2-154: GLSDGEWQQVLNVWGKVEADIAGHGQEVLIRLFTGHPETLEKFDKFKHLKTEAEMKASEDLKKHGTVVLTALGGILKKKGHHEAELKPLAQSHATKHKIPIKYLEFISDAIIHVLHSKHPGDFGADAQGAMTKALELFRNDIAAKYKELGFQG

Key:
[1] = molecular target: Fmoc-DDIKVAV self-assembled peptide hydrogel; test: SAXS of hydrogel and myoglobin:hydrogel samples (indirect, structural)
[2] = molecular target: Fmoc-DDIKVAV self-assembled peptide hydrogel; test: TEM, FTIR and CD of hydrogel with and without myoglobin (indirect, structural)

How did the binding [1] turn out when “horse skeletal muscle myoglobin (Equus caballus) (from UniProt P68082 2-154)” was run?
The binding was “binds”.

And the binding [2]?
Its binding is “binds”.
